No constants are given. Whether binding was seen depends on the method and setting. Binding seen in cells or lysates may run through a third protein. Some results given as binding are weak or reduced against the parent protein; the word gives no strength.
Biological target: human UBQLN2^P497H expressed from pCMV-hUBQLN2^P497H (human) (UniProt Q9UHD9)
Test: co-IP; extracts of Neuro2A cells 48 h after transfection with control, pCMV-hUBQLN2^P497H (2), pCMV-ubiquitin (3), pCMV-hTDP-43^G348C (4) or combinations; immunoprecipitation of UBQLN2, TDP-43 detected; less TDP-43 bound when ubiquitin was co-expressed (2 + 3, 2 + 3 + 4)

The chains behind the UniProt entries cited, without tags or fusion partners. Where a name states a change or a piece, a line headed by the entry shows the natural chain unless it says otherwise.
UniProt Q9UHD9: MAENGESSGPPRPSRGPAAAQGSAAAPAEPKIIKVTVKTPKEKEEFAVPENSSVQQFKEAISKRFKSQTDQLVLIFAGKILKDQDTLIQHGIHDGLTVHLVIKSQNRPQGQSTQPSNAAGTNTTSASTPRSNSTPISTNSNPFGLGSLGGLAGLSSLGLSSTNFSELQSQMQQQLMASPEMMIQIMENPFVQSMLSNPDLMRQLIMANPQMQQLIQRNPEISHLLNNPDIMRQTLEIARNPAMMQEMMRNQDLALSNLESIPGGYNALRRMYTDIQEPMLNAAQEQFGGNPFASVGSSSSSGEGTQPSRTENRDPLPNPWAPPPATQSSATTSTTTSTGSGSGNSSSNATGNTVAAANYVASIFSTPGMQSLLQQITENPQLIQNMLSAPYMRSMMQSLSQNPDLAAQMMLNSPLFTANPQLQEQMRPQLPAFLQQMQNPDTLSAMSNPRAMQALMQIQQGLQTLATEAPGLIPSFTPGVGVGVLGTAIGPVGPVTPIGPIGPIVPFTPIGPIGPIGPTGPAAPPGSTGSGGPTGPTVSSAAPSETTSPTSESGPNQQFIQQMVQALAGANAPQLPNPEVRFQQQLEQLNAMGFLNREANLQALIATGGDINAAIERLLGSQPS
UniProt Q921F2: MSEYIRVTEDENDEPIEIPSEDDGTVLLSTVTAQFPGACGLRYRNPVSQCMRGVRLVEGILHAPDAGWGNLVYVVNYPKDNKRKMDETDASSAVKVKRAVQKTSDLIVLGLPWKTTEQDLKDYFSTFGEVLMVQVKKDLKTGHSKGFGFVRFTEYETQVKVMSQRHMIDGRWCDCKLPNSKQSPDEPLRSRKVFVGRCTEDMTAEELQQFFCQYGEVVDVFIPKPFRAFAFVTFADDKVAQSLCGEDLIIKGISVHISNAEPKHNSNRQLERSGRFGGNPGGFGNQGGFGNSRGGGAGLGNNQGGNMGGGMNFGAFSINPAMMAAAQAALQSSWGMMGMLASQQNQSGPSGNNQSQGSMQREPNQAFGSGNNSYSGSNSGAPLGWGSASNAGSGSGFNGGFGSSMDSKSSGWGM

In the case of “mouse TDP-43 (endogenous in Neuro2A) (from UniProt Q921F2 1-414)”, the binding is reported as “binds”.
